Data as given in PubChem BioAssay AID1259405 (NCATS, 2018)

- Screen: 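Silenced genes that increase secreted GFP made by CHO cells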 (primary screen)
- Cell system: Chinese hamster CHO-K1 ovary cells with stable secreted eGFP expression
- Knock-down reagent: single siRNA against mouse genes, 0.8 pmol siRNA per well (2 µl of 400 nM stock)
- Duration: 3 days
- Measurement: 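Percent of the per-plate non-targeting control median for intracellular GFP per well by laser scanning cytometry and for cell viability by ATP luminescence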
- Direction: GFP, % of control: higher = more GFP per well, higher productivity; viability (ATP), % of control: higher = more viable cells (more ATP)
- Rule for the call: 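Called active when intracellular GFP, relative to negative control, is at or above 120%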
The whole screen tested about 50,000 reagents; below is a random part of them. In the full data, about 4,000 (8%) are marked active. 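Mouse siRNA library applied to hamster cells; one well for each siRNA.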

After knock-down of Zfp819 (zinc finger protein 819) [SID363555294], the record shows GFP, % of control 69.2; viability (ATP), % of control 51.5; inactive.
Zfp819 (zinc finger protein 819) [SID363563955] scored GFP, % of control 96.8; viability (ATP), % of control 65; inactive.
Depletion of Zfp819 (zinc finger protein 819) [SID363587501] came out at: GFP, % of control 100; viability (ATP), % of control 95.9; inactive.
With knock-down of Pcdha12 (protocadherin alpha 12) [SID363541780] the results were GFP, % of control 88.1; viability (ATP), % of control 73.7; inactive.
Knock-down of Pcdha12 (protocadherin alpha 12) [SID363553372] came out at: GFP, % of control 46.7; viability (ATP), % of control 33.7; inactive.
Depletion of Pcdha12 (protocadherin alpha 12) [SID363566696] came out at: GFP, % of control 105; viability (ATP), % of control 88.5; inactive.
Against Spg11 (SPG11, spatacsin vesicle trafficking associated) [SID363550240], the entry reads GFP, % of control 71.8; viability (ATP), % of control 79.4; inactive.
Silencing of Spg11 (SPG11, spatacsin vesicle trafficking associated) [SID363564749] came out at: GFP, % of control 62.9; viability (ATP), % of control 56.7; inactive.
Spg11 (SPG11, spatacsin vesicle trafficking associated) [SID363588294] showed GFP, % of control 75.6; viability (ATP), % of control 98.9; inactive.
Against Cxadr (coxsackie virus and adenovirus receptor) [SID363568806], the values are GFP, % of control 53.1; viability (ATP), % of control 64.4; inactive.
For Cxadr (coxsackie virus and adenovirus receptor) [SID363576198], the entry reads GFP, % of control 18.3; viability (ATP), % of control 32.1; inactive.
With knock-down of Cxadr (coxsackie virus and adenovirus receptor) [SID363579014], the record shows GFP, % of control 119; viability (ATP), % of control 73.6; inactive.
Depletion of Nlrp4g (NLR family, pyrin domain containing 4G) [SID363540249] gave: GFP, % of control 86.4; viability (ATP), % of control 77.3; inactive.
With knock-down of Nlrp4g (NLR family, pyrin domain containing 4G) [SID363542001], the screen gave GFP, % of control 133; viability (ATP), % of control 111; active.
Nlrp4g (NLR family, pyrin domain containing 4G) [SID363566917] gave GFP, % of control 110; viability (ATP), % of control 92.3; inactive.
With knock-down of Or11h23 (olfactory receptor family 11 subfamily G member 23) [SID363544984], the screen gave GFP, % of control 117; viability (ATP), % of control 61.4; inactive.
Or11h23 (olfactory receptor family 11 subfamily G member 23) [SID363551312] gave GFP, % of control 55.9; viability (ATP), % of control 53.6; inactive.
After knock-down of Or11h23 (olfactory receptor family 11 subfamily G member 23) [SID363557861] the results were GFP, % of control 34.4; viability (ATP), % of control 40.2; inactive.

In a second layout: entries from further up
{"gene symbol":"Pcdha12 (protocadherin alpha 12)","PubChem SID":"SID363553372","GFP, % of control":46.7,"viability (ATP), % of control":33.7,"outcome":"inactive"}
{"gene symbol":"Pcdha12 (protocadherin alpha 12)","PubChem SID":"SID363566696","GFP, % of control":105,"viability (ATP), % of control":88.5,"outcome":"inactive"}
{"gene symbol":"Spg11 (SPG11, spatacsin vesicle trafficking associated)","PubChem SID":"SID363550240","GFP, % of control":71.8,"viability (ATP), % of control":79.4,"outcome":"inactive"}

Further reagents follow:
Serinc1 (serine incorporator 1) [SID363572837] showed GFP, % of control 86.8; viability (ATP), % of control 72.5; inactive.
With knock-down of Serinc1 (serine incorporator 1) [SID363577413], the screen gave GFP, % of control 88.2; viability (ATP), % of control 57.7; inactive.
For Serinc1 (serine incorporator 1) [SID363580933], the entry reads GFP, % of control 34.1; viability (ATP), % of control 35.1; inactive.
For Or8g26 (olfactory receptor family 8 subfamily G member 26) [SID363554749] the deposit lists GFP, % of control 50.3; viability (ATP), % of control 32.1; inactive.
Against Or8g26 (olfactory receptor family 8 subfamily G member 26) [SID363568196], the values are GFP, % of control 66.4; viability (ATP), % of control 83.7; inactive.
Against Or8g26 (olfactory receptor family 8 subfamily G member 26) [SID363586255] the deposit lists GFP, % of control 109; viability (ATP), % of control 69.8; inactive.
Knock-down of Tc2n (tandem C2 domains, nuclear) [SID363582662] gave: GFP, % of control 55.8; viability (ATP), % of control 76.5; inactive.
Knock-down of Tc2n (tandem C2 domains, nuclear) [SID363584422] came out at: GFP, % of control 74.2; viability (ATP), % of control 68; inactive.
After knock-down of Sgcb (sarcoglycan, beta (dystrophin-associated glycoprotein)) [SID363554927], the record shows GFP, % of control 78.3; viability (ATP), % of control 91; inactive.
With knock-down of Sgcb (sarcoglycan, beta (dystrophin-associated glycoprotein)) [SID363568374] the results were GFP, % of control 71.1; viability (ATP), % of control 83.9; inactive.
Knock-down of Sgcb (sarcoglycan, beta (dystrophin-associated glycoprotein)) [SID363586433] resulted in: GFP, % of control 77.9; viability (ATP), % of control 72.1; inactive.
With knock-down of Wif1 (Wnt inhibitory factor 1) [SID363572617], the screen gave GFP, % of control 78.1; viability (ATP), % of control 83.5; inactive.
After knock-down of Wif1 (Wnt inhibitory factor 1) [SID363577897], the screen gave GFP, % of control 103; viability (ATP), % of control 84.1; inactive.
Wif1 (Wnt inhibitory factor 1) [SID363582121] scored GFP, % of control 89.7; viability (ATP), % of control 110; inactive.
After knock-down of Csrnp1 (cysteine-serine-rich nuclear protein 1) [SID363546614], the record shows GFP, % of control 86.9; viability (ATP), % of control 64.8; inactive.
Csrnp1 (cysteine-serine-rich nuclear protein 1) [SID363548370] gave GFP, % of control 88.6; viability (ATP), % of control 85; inactive.
Csrnp1 (cysteine-serine-rich nuclear protein 1) [SID363560548] scored GFP, % of control 33.1; viability (ATP), % of control 20.2; inactive.
For Ubox5 (U box domain containing 5) [SID363550196], the values are GFP, % of control 86.6; viability (ATP), % of control 88.2; inactive.
Depletion of Ubox5 (U box domain containing 5) [SID363564705] came out at: GFP, % of control 93.6; viability (ATP), % of control 78; inactive.
Ubox5 (U box domain containing 5) [SID363588250] showed GFP, % of control 121; viability (ATP), % of control 83.1; active.
Nudt10 (nudix hydrolase 10) [SID363547719] gave GFP, % of control 129; viability (ATP), % of control 82.8; active.
Against Nudt10 (nudix hydrolase 10) [SID363558488], the entry reads GFP, % of control 123; viability (ATP), % of control 80; active.
For Nudt10 (nudix hydrolase 10) [SID363560246], the values are GFP, % of control 76.1; viability (ATP), % of control 67.2; inactive.
Against Or8b43 (olfactory receptor family 8 subfamily B member 43) [SID363554663] the deposit lists GFP, % of control 86.6; viability (ATP), % of control 68; inactive.
With knock-down of Or8b43 (olfactory receptor family 8 subfamily B member 43) [SID363568110], the screen gave GFP, % of control 81.7; viability (ATP), % of control 73; inactive.
Or8b43 (olfactory receptor family 8 subfamily B member 43) [SID363586169] showed GFP, % of control 72.3; viability (ATP), % of control 131; inactive.
Knock-down of Ces1c (carboxylesterase 1C) [SID363545480] came out at: GFP, % of control 74.1; viability (ATP), % of control 96; inactive.
Against Ces1c (carboxylesterase 1C) [SID363548993] the deposit lists GFP, % of control 61; viability (ATP), % of control 86.5; inactive.
Against Ces1c (carboxylesterase 1C) [SID363562799] the deposit lists GFP, % of control 27.8; viability (ATP), % of control 65.7; inactive.
After knock-down of Tars3 (threonyl-tRNA synthetase 3) [SID363541757] the results were GFP, % of control 117; viability (ATP), % of control 113; inactive.
With knock-down of Tars3 (threonyl-tRNA synthetase 3) [SID363553349], the screen gave GFP, % of control 42.6; viability (ATP), % of control 42.4; inactive.
After knock-down of Tars3 (threonyl-tRNA synthetase 3) [SID363566673] the results were GFP, % of control 71.3; viability (ATP), % of control 66.1; inactive.
Silencing of Tbc1d23 (TBC1 domain family, member 23) [SID363569232] came out at: GFP, % of control 80.9; viability (ATP), % of control 111; inactive.
For Tbc1d23 (TBC1 domain family, member 23) [SID363583664] the deposit lists GFP, % of control 98.9; viability (ATP), % of control 98; inactive.
